Laboratory results: PubChem BioAssay AID1259405 (NCATS, 2018)
Here is an unselected part of about 50,000 reagents tested. About 4,000 of them (8%) count as active. 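Mouse siRNA library applied to hamster cells; one well for each siRNA.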 A number with no mark means an inactive call. Reagents against one gene are numbered here. Reagent sequences are not shown.

Screen: 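Silenced genes that increase secreted GFP made by CHO cells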 (primary screen)
Cells: Chinese hamster CHO-K1 ovary cells with stable secreted eGFP expression
Reagent: single siRNA against mouse genes, 0.8 pmol siRNA per well (2 µl of 400 nM stock)
Duration: 3 days
Read-out: 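Per-well intracellular GFP measured by laser scanning cytometry, plus viability from ATP luminescence, each relative to plate median of non-targeting control wells, in %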
Direction: GFP, % of control: higher = more GFP per well, higher productivity; viability (ATP), % of control: higher = more viable cells (more ATP)
Active means: 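a knock-down is called active if GFP reaches 120% or more of non-targeting control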

| Gene | reagent | GFP, % of control | viability (ATP), % of control |
| --- | --- | --- | --- |
| Tspan10 (tetraspanin 10) | 1 | 104 | 74.4 |
| Tspan10 (tetraspanin 10) | 2 | 86.3 | 71.2 |
| Tspan10 (tetraspanin 10) | 3 | 80.7 | 60.1 |
| Or14a258 (olfactory receptor family 14 subfamily A member 258) | 1 | 85 | 62.2 |
| Or14a258 (olfactory receptor family 14 subfamily A member 258) | 2 | 71.8 | 56.9 |
| Or14a258 (olfactory receptor family 14 subfamily A member 258) | 3 | 113 | 74.6 |
| Eif3d (eukaryotic translation initiation factor 3, subunit D) | 1 | 92.1 | 95.3 |
| Eif3d (eukaryotic translation initiation factor 3, subunit D) | 2 | 64.5 | 70.3 |
| Eif3d (eukaryotic translation initiation factor 3, subunit D) | 3 | 110 | 68.5 |
| Il22b (interleukin 22B) | 1 | 122 (active) | 94.8 |
| Il22b (interleukin 22B) | 2 | 98.8 | 77 |
| Il22b (interleukin 22B) | 3 | 62.3 | 86.5 |
| Fcnb (ficolin B) | 1 | 88.1 | 93.1 |
| Fcnb (ficolin B) | 2 | 62.8 | 58.1 |
| Or2p2 (olfactory receptor family 2 subfamily P member 2) | 1 | 81.2 | 80.7 |
| Or2p2 (olfactory receptor family 2 subfamily P member 2) | 2 | 82.4 | 68.5 |
| Or2p2 (olfactory receptor family 2 subfamily P member 2) | 3 | 35.5 | 65.5 |
| Tex13a (testis expressed 13A) | 1 | 90.6 | 30.4 |
| Tex13a (testis expressed 13A) | 2 | 153 (active) | 107 |
| Tex13a (testis expressed 13A) | 3 | 84 | 85.1 |
| Angel1 (angel homolog 1) | 1 | 129 (active) | 104 |
| Angel1 (angel homolog 1) | 2 | 72.1 | 92.1 |
| Rcan3 (regulator of calcineurin 3) | 1 | 79.7 | 54.6 |
| Rcan3 (regulator of calcineurin 3) | 2 | 106 | 107 |
| D030056L22Rik (RIKEN cDNA D030056L22 gene) | 1 | 76.8 | 88.8 |
| D030056L22Rik (RIKEN cDNA D030056L22 gene) | 2 | 73.8 | 91.8 |
| D030056L22Rik (RIKEN cDNA D030056L22 gene) | 3 | 83.8 | 92.9 |
| Mybphl (myosin binding protein H-like) | 1 | 80.2 | 80.1 |
| Mybphl (myosin binding protein H-like) | 2 | 101 | 93.7 |
| Mybphl (myosin binding protein H-like) | 3 | 65 | 34.2 |
| Dbp (D site albumin promoter binding protein) | 1 | 45.3 | 41.5 |
| Dbp (D site albumin promoter binding protein) | 2 | 43 | 41.6 |
| Dbp (D site albumin promoter binding protein) | 3 | 96.9 | 97.4 |
| Dmac1 (distal membrane arm assembly complex 1) | 1 | 76.6 | 72.7 |
| Dmac1 (distal membrane arm assembly complex 1) | 2 | 47.8 | 69.7 |
| Dmac1 (distal membrane arm assembly complex 1) | 3 | 87.4 | 82.5 |
| Opalin (oligodendrocytic myelin paranodal and inner loop protein) | 1 | 94.6 | 97.2 |
| Opalin (oligodendrocytic myelin paranodal and inner loop protein) | 2 | 91.6 | 123 |
| Opalin (oligodendrocytic myelin paranodal and inner loop protein) | 3 | 1.3 | 219 |

Entries listed so far with an active call, once more:
| Gene | reagent | GFP, % of control | viability (ATP), % of control |
| --- | --- | --- | --- |
| Il22b (interleukin 22B) | 1 | 122 (active) | 94.8 |
| Tex13a (testis expressed 13A) | 2 | 153 (active) | 107 |
| Angel1 (angel homolog 1) | 1 | 129 (active) | 104 |

Further records follow.
| Gene | reagent | GFP, % of control | viability (ATP), % of control |
| --- | --- | --- | --- |
| Bloc1s5 | 1 | 72.3 | 44.2 |
| Bloc1s5 | 2 | 108 | 92.8 |
| Sys1 | 1 | 113 | 77.9 |
| Sys1 | 2 | 85.8 | 64.8 |
| Sys1 | 3 | 76.8 | 68.7 |
| Ankrd28 (ankyrin repeat domain 28) | 1 | 52.2 | 37.8 |
| Ankrd28 (ankyrin repeat domain 28) | 2 | 66.7 | 78.1 |
| Ankrd28 (ankyrin repeat domain 28) | 3 | 77.7 | 72.8 |
| AI837181 (expressed sequence AI837181) | 1 | 71.7 | 76.6 |
| AI837181 (expressed sequence AI837181) | 2 | 124 (active) | 124 |
| AI837181 (expressed sequence AI837181) | 3 | 95.6 | 94.6 |
| Pphln1 (periphilin 1) | 1 | 69.1 | 63.6 |
| Pphln1 (periphilin 1) | 2 | 41.2 | 64.5 |
| Pphln1 (periphilin 1) | 3 | 104 | 80.7 |
| Muc2 (mucin 2) | 1 | 63.7 | 50.6 |
| Muc2 (mucin 2) | 2 | 72.2 | 71.5 |
| Muc2 (mucin 2) | 3 | 16 | 32.8 |
| Thumpd1 (THUMP domain containing 1) | 1 | 75 | 73.4 |
| Thumpd1 (THUMP domain containing 1) | 2 | 81.2 | 88 |
| Thumpd1 (THUMP domain containing 1) | 3 | 61.1 | 51.3 |
| 9530002B09Rik (RIKEN cDNA 9530002B09 gene) | 1 | 42.7 | 50.4 |
| 9530002B09Rik (RIKEN cDNA 9530002B09 gene) | 2 | 73.9 | 86.4 |
| 9530002B09Rik (RIKEN cDNA 9530002B09 gene) | 3 | 43.4 | 50.6 |
| Or9g4 (olfactory receptor family 9 subfamily G member 4) | 1 | 115 | 48.9 |
| Or9g4 (olfactory receptor family 9 subfamily G member 4) | 2 | 69.7 | 70.8 |
| Or9g4 (olfactory receptor family 9 subfamily G member 4) | 3 | 32.3 | 53.2 |
| Hc (hemolytic complement) | 1 | 42 | 41.6 |
| Hc (hemolytic complement) | 2 | 65.7 | 85.4 |
| Hc (hemolytic complement) | 3 | 85.7 | 99.6 |
| Slc46a1 | 1 | 112 | 142 |
| Slc46a1 | 2 | 103 | 92.9 |
| Glp1r (glucagon-like peptide 1 receptor) | 1 | 27.3 | 32.4 |
| Glp1r (glucagon-like peptide 1 receptor) | 2 | 66.7 | 79.2 |
| Glp1r (glucagon-like peptide 1 receptor) | 3 | 53.1 | 73.2 |
| Taf7l (TATA-box binding protein associated factor 7 like) | 1 | 56.4 | 54.7 |
| Taf7l (TATA-box binding protein associated factor 7 like) | 2 | 64.7 | 73.9 |
| Taf7l (TATA-box binding protein associated factor 7 like) | 3 | 76.3 | 87.1 |
| Ireb2 (iron responsive element binding protein 2) | 1 | 89.8 | 103 |
| Ireb2 (iron responsive element binding protein 2) | 2 | 57 | 77.5 |
| Or1j20 (olfactory receptor family 1 subfamily J member 20) | 1 | 97.2 | 74.4 |
| Or1j20 (olfactory receptor family 1 subfamily J member 20) | 2 | 119 | 58.1 |
| Or1j20 (olfactory receptor family 1 subfamily J member 20) | 3 | 53 | 103 |
| Dach1 (dachshund family transcription factor 1) | 1 | 56.7 | 64.8 |
| Dach1 (dachshund family transcription factor 1) | 2 | 48.2 | 59.7 |
| Dach1 (dachshund family transcription factor 1) | 3 | 111 | 92.8 |
| Or5m12 (olfactory receptor family 5 subfamily M member 12) | 1 | 104 | 79.5 |
| Or5m12 (olfactory receptor family 5 subfamily M member 12) | 2 | 87.5 | 66.8 |
| Or5m12 (olfactory receptor family 5 subfamily M member 12) | 3 | 18 | 14 |
| Colgalt2 (collagen beta(1-O)galactosyltransferase 2) | 1 | 113 | 101 |
| Colgalt2 (collagen beta(1-O)galactosyltransferase 2) | 2 | 111 | 125 |
| Colgalt2 (collagen beta(1-O)galactosyltransferase 2) | 3 | 47.4 | 48.6 |
| Or10n1 (olfactory receptor family 10 subfamily N member 1) | 1 | 67 | 77.1 |
| Or10n1 (olfactory receptor family 10 subfamily N member 1) | 2 | 61.5 | 99.8 |
| Or10n1 (olfactory receptor family 10 subfamily N member 1) | 3 | 57.3 | 65.3 |
| Nfe2l3 (nuclear factor, erythroid derived 2, like 3) | 1 | 94.9 | 85.9 |
| Nfe2l3 (nuclear factor, erythroid derived 2, like 3) | 2 | 68.8 | 77 |
| Nfe2l3 (nuclear factor, erythroid derived 2, like 3) | 3 | 88.7 | 117 |
| B3galt6 | 1 | 113 | 84.8 |
| B3galt6 | 2 | 56.3 | 70.4 |
| B3galt6 | 3 | 92.4 | 96.9 |
| Magea5 (MAGE family member A5) | 1 | 98 | 89.4 |
| Magea5 (MAGE family member A5) | 2 | 67 | 34.9 |
| Magea5 (MAGE family member A5) | 3 | 99.7 | 46.5 |
| Sertad2 (SERTA domain containing 2) | 1 | 48.3 | 36.8 |
| Sertad2 (SERTA domain containing 2) | 2 | 87.5 | 68.5 |
| Sertad2 (SERTA domain containing 2) | 3 | 74.9 | 77.9 |
| Rspo1 (R-spondin 1) | 1 | 102 | 57.4 |
| Rspo1 (R-spondin 1) | 2 | 103 | 74.7 |
| Rspo1 (R-spondin 1) | 3 | 81.1 | 88.8 |
